Among all 320,000 compounds or so, about 2,100 (0.66%) were called active. The inconclusive results got no clear call from the source; some entries with a clear call stand among them for comparison. Calls follow the shape of the dose curve; as a rule, active = well fitted inhibition curve with a large enough effect in the signal ratio, with a control signal flat (not every such curve was filed as active); inconclusive = small, poorly fitted or top-dose-only effect, or effect the other way, or a change in a side signal; inactive = flat fitted curve, though single readings scatter; the % refers to the signal ratio. Potencies beside an inconclusive call are fits to weak or partial responses and may not hold up.
Experiment: qHTS Assay for Lipid Storage Modulators in Drosophila S3 Cells
Conditions: BODIPY lipid droplet fluorescence, 18-24 h, cells fed with added oleic acid; lipid storage change, negative = inhibition: at 46.1 µM (top of the series) unless noted
In short: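 Laser-scanning cytometry quantifies lipid droplet accumulation (500–530 nm total intensity; droplet/cell object ratio) in oleic acid-fed (400 uM added) Drosophila S3 cells treated with a concentration series. 20 uM Triacsin C defined 100% inhibition.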
% is scaled to controls: 0 for no effect and ±100 for the full control effect; potency is read from the fitted curve at half-maximal effect.

SMILES	Potency	lipid storage change, negative = inhibition
CSc1nncc(/C(C)=N\Nc2ccccc2C)n1	inconclusive: 0.461 µM [rising, full curve]	–
Cn1cc(-c2cccc(C(F)(F)F)c2)cc(C#N)c1=O	–	inconclusive: -18%
C=CCn1c(SCc2ccc3c(c2)OCO3)nc2scc(-c3ccco3)c2c1=O	–	inactive
Cc1ccc(NC(=S)N(CCN2CCCCC2)Cc2ccco2)cc1Cl	–	inconclusive: 32.2%
Cc1cccc(N/N=C(\C(N)=O)C2=NC(C)(C)Cc3ccccc32)c1	inconclusive: 29.1 µM [cytotoxic, single point]	–
COc1cccc(OC)c1C(=O)Nc1cccc(-n2cnnn2)c1	inconclusive: 18.4 µM [falling, single point]	–
Cc1cccc(C(=O)NN/C=C/C(=O)c2ccccc2)c1	inconclusive: 18.4 µM [falling, single point]	–
Cc1cc(Cl)c(C)c(S(=O)(=O)N2CCN(C(=O)C3CCCO3)CC2)c1Cl (centres undefined)	inconclusive: 29.1 µM [falling, single point]	–
O=C(NCc1ccco1)c1ccccc1NS(=O)(=O)c1ccc(Br)s1	–	inconclusive: -31.1%
CCOC(=O)c1c(NC(=O)COC(=O)Cn2c(C(F)(F)F)nc3ccccc32)sc(C)c1C	–	inactive
Cc1cccc(N(CC(=O)NCCSCc2ccco2)S(=O)(=O)c2ccccc2)c1	–	inconclusive: -14%
CC(C)(C)C(=O)CSc1ccc(S(=O)(=O)N2CCCC2)cn1	–	inconclusive: -32%
O=C(CSc1nnc2c(n1)[nH]c1ccc(F)cc12)N1CCOCC1	–	inconclusive: 23.5%
NC(=O)c1nsc(C(=O)N(c2ccc3c(c2)OCCO3)C(C(=O)NCC2CCCO2)c2ccc(F)cc2)c1N (centres undefined)	–	inconclusive: -8.99%
CC(C)(C)NS(=O)(=O)c1ccc(C(=O)Nc2ccc3c(c2)OCO3)cc1	inconclusive: 29.1 µM [activator, single point]	–
CCOc1ccccc1NC(=S)NC(=O)c1ccco1	inconclusive: 29.1 µM [activator, single point]	–
CCOC(=O)C1CCCN(CCSc2ccc(C)cc2)C1 (centres undefined)	–	inconclusive: 23.7%
CCCCOc1ccc(/C=C/C(=O)NC2=Nc3ccccc3NC(C)=C2C(=O)OCC)cc1OC	–	inconclusive: 10.8%
O=C(NCCCn1ccnc1)C1CC(c2cccc(Br)c2)=NO1 (centres undefined)	–	inconclusive: 30.3%
Cc1ccc(C)c(NC(=O)CSc2nncn2C)c1	–	inconclusive: 32.9%
COc1ccc(CCNC(=O)CSc2nn(-c3ccccc3)c(=S)s2)cc1OC	–	inconclusive: -63.2%
COc1ccc(CNC(=O)C/C(C)=N/NC(=O)C(c2ccccc2)c2ccccc2)cc1	–	inconclusive: -23.9%
CC(NC(=O)NC1CCCCC1)c1ccccc1 (centres undefined)	inconclusive: 29.1 µM [falling, single point]	–
Cc1cc(C)cc(N2C(=O)CC(N3CCOCC3)C2=O)c1 (centres undefined)	inconclusive: 0.0052 µM [falling, full curve]	–
Cc1csc2c(N3CCN(C(=O)Nc4ccccc4)CC3)ncnc12	–	inconclusive: -0.0615%

4 compounds drawn at random from those above, as already listed:
SMILES	Potency	lipid storage change, negative = inhibition
Cc1cccc(N(CC(=O)NCCSCc2ccco2)S(=O)(=O)c2ccccc2)c1	–	inconclusive: -14%
Cc1cc(Cl)c(C)c(S(=O)(=O)N2CCN(C(=O)C3CCCO3)CC2)c1Cl (centres undefined)	inconclusive: 29.1 µM [falling, single point]	–
CCOC(=O)c1c(NC(=O)COC(=O)Cn2c(C(F)(F)F)nc3ccccc32)sc(C)c1C	–	inactive
O=C(CSc1nnc2c(n1)[nH]c1ccc(F)cc12)N1CCOCC1	–	inconclusive: 23.5%

Following part

SMILES	Potency	lipid storage change, negative = inhibition
CCCCCCc1nc2c(=O)[nH]c3ccccc3c2o1	inconclusive: 1.84 µM [activator, partial curve]	–
Cc1cc(=O)oc2cc(NC(=O)C3CCCC3)ccc12	–	inconclusive: 29%
O=C1CSC(c2cn(-c3ccccc3)nc2-c2ccc3c(c2)OCCO3)N1CCN1CCOCC1 (centres undefined)	–	inconclusive: 24.1%
Cn1cc(-c2ccccc2C(=O)O)c(=O)c2cc(Cl)ccc21	–	inconclusive: -25.5%
CCCCC(=O)Nc1cccc(-c2ccc3nncn3n2)c1	inconclusive: 0.461 µM [falling, full curve]	–
CC(=O)N(Cc1cccs1)C1CCOC(C)(C)C1 (centres undefined)	–	inconclusive: -1.49%
NNc1nc(-c2ccccc2)cc(-c2ccccc2O)n1	–	inconclusive: 39.1%
Cc1ccc(CNC(=O)Nc2ccccc2)c(C)c1	–	inconclusive: -40.1%
CC(Sc1nc2ccccc2n1C)C(=O)NC(c1ccccc1)c1ccccc1 (centres undefined)	–	inconclusive: -17.3%
CC(=O)Nc1ccc(NC(=O)COC(=O)/C=C/c2ccc3c(c2)OCO3)cc1	active: 5.17 µM	–
Cc1c(C(=O)Nc2cccnc2Cl)oc2ccccc12	inconclusive: 29.1 µM [falling, single point]	–
COc1cc(/C=C(/C#N)c2nc3ccccc3[nH]2)ccc1Oc1ncccc1[N+](=O)[O-]	inconclusive: 29.1 µM [falling, single point]	–
O=C(CSCC(=O)N1CCOCC1)Nc1nc(-c2ccccc2)cs1	inconclusive: 0.651 µM [falling, partial curve]	–
C[C@@]12CCC=C[C@H]1[C@H](c1ccc3ccccc3c1)N(Cc1ccccc1)C2=O	–	inconclusive: -2.2%
Cc1cccc(NC(=O)c2ccc([N+](=O)[O-])s2)n1	inconclusive: 14.6 µM [cytotoxic, partial curve]	–
O=C1C(=O)N(CC(=O)N2CCCC2)c2ccccc21	–	inconclusive: -38.3%
CNC(=S)N(Cc1ccc2c(c1)OCO2)C1CC(=O)N(c2ccc(F)cc2)C1=O (centres undefined)	inconclusive: 14.6 µM [rising, partial curve]	–
CC(NC(=O)C1CCN(C(=O)[C@@H]2Cc3ccccc3CN2C(=O)OC(C)(C)C)CC1)c1ccccc1 (some centres undefined)	inconclusive: 1.84 µM [falling, full curve, poor fit]	–
Oc1ccc(-c2nc(-c3ccc(O)c(O)c3)cs2)cc1	active: 0.0116 µM	–
CN(C(=O)c1nn(C)c2c1CS(=O)(=O)c1ccccc1-2)c1cccc(Cl)c1	–	inconclusive: 4.58%
Cn1c2c(c(=O)n(C)c1=O)C(c1ccccc1Cl)C(C#N)=C(N)O2 (centres undefined)	–	inconclusive: 15.5%
CC(=O)Oc1ccc(/C=N/NC(=S)Nc2ccccc2)cc1	–	inconclusive: -37.9%
CC(Sc1nnc2n1CCCCC2)C(=O)Nc1cccc(S(=O)(=O)N2CCOCC2)c1 (centres undefined)	–	inconclusive: 38.5%
COc1cccc(COc2nc3c(c(=O)n(C)c(=O)n3C)n2C)c1	inconclusive: 4.11 µM [rising, single point]	–

Reference: PubChem BioAssay AID2685 (National Center for Advancing Translational Sciences (NCATS), 2010)
